Data reported in the supplement of paper PMC8551327.
Some of the results follow. No stated cut-off is given here; in the data, active = 1.25 or more and inactive = the rest. Repeats are few or missing, and single values can be far off.

test system: Kcc2-LUC knock-in mouse primary cortical neurons (Kcc2 promoter reporter); test: Kcc2 promoter-driven luciferase activity relative to vehicle control (fold of vehicle (ratio)); higher = stronger Kcc2 promoter activation (Kcc2 expression enhancer); settings: 100 nM; 48 h

Kcc2 promoter-driven luciferase activity, inactive:
CCOC(=O)/N=C(\N)SCc1ccccc1 0.41, C[C@@H]1[C@H](O)[C@@H](C)/C=C/C=C/C=C/C=C/C=C/C=C/C=C/[C@H](O[C@@H]2O[C@H](C)[C@@H](O)[C@H](N)[C@@H]2O)C[C@@H]2O[C@](O)(C[C@@H](O)C[C@@H](O)[C@H](O)CC[C@@H](O)C[C@@H](O)CC(=O)O[C@H]1C)C[C@H](O)[C@H]2C(=O)O [Amphotericin B] 1.06, O=C(CC1(O)C(=O)Nc2c(Cl)ccc(Cl)c21)c1ccc(Cl)cc1 (stereo not given) 0.93, Cc1cc(O)c(C(C)C)cc1C1(c2cc(C(C)C)c(O)cc2C)OC(=O)c2ccccc21 [Thymophthalein] 0.79, CN(CCc1ccccn1)c1ccc2c(c1)C(=O)c1ccccc1-2 0.68
